Results are given in words; binding and its absence hold for the method and conditions named. In cells and extracts the contact can be indirect. Some binding calls cover weakened binding; strength is not graded here.
T1: DDX21 (human) (UniProt Q9NR30)
T1 sequence (looked up): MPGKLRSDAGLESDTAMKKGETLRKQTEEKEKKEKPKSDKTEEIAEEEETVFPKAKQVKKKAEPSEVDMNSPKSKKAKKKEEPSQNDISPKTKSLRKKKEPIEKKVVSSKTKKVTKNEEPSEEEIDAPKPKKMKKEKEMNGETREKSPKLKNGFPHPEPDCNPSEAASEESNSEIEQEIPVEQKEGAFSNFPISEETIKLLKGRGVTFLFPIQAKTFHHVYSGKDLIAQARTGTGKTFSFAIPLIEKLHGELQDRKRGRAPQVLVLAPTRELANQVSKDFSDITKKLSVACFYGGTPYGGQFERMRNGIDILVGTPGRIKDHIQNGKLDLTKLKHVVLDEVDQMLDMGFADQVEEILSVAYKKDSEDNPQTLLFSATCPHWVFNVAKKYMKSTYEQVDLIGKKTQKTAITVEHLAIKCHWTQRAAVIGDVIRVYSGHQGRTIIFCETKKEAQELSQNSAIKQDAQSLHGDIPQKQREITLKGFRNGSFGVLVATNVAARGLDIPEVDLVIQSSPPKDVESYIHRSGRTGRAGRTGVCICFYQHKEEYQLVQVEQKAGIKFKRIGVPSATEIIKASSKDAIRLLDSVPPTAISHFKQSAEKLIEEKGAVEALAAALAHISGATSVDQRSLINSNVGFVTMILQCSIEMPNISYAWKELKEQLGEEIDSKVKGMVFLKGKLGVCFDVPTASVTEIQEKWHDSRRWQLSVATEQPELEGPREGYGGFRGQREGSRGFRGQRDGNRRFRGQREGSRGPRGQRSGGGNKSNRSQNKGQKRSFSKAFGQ

T2: WDR43 (human) (UniProt Q15061)
T2 sequence (looked up): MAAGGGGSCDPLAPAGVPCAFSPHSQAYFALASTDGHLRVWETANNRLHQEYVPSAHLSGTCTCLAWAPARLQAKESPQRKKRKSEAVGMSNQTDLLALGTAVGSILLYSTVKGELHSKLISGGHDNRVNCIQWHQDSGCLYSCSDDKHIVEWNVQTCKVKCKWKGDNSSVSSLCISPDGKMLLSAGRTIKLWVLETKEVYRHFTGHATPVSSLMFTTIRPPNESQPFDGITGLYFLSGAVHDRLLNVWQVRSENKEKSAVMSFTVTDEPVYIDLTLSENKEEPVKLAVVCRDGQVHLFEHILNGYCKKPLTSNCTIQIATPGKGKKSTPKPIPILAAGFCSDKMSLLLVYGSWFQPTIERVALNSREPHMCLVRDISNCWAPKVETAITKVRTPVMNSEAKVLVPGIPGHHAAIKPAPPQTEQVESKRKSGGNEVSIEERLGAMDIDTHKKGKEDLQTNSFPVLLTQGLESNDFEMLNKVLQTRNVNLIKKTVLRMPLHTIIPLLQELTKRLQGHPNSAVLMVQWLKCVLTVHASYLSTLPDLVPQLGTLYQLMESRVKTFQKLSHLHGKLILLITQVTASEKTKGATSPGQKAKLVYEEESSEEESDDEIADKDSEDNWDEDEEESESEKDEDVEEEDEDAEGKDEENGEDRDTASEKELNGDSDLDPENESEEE

B1: ΔTAD1 (enzyme, not shown: small tags and cut ends)
chain: MGKVNVAKLRYMSHEIVPGSLIASIASLKHGGCNKVLRELVKHKLIAWERTKTVQGYRLTNAGYDYLALKTLSSRQVVESVGNQMGVGKESDIYIVANEEGQQFALKLHRLGRTSFRNLKNKRDYHKHRHNVSWLYLSRLSAMKEFAYMKALYERKFPVPKPIDYNRHAVVMELINGYPLCQIHHVEDPASVYDEAMELIVKLANHGLIHGDFNEFNLILDESDHITMIDFPQMVSTSHPNAEWYFDRDVKCIKDFFMKRFSYESELFPTFKDIRREDTLDVEVSASGYTKEMQADDELLHPLGPDDKNIETKEGSEFSFSDGEVAEKAEVYGSENESERNCLEESEGCYCRSSGDPEQIKEDSLSEESADARSFEMTEFNQALEEIKGQVVENNSVTEFSEEKNRTENYNRQDGQRVQGGVPAGSDEYEDECPHLIALSSLNREFRPFRDEENVGAMNQYRTRTLSITSSGSAVSCSTIPPELVKQKVKRQLTKQQKSAVRRRLQKGEANIFTKQRRENMQNIKSSLEAASFWGE
B2: ΔTAD2 (enzyme, not shown: small tags and cut ends)
chain: MGKVNVAKLRYMSRDDFRVLTAVEMGMKNHEIVPGSLIASIASLKHGGCNKVLRELVKHKLIAWERTKTVQGYRLTRQVVESVGNQMGVGKESDIYIVANEEGQQFALKLHRLGRTSFRNLKNKRDYHKHRHNVSWLYLSRLSAMKEFAYMKALYERKFPVPKPIDYNRHAVVMELINGYPLCQIHHVEDPASVYDEAMELIVKLANHGLIHGDFNEFNLILDESDHITMIDFPQMVSTSHPNAEWYFDRDVKCIKDFFMKRFSYESELFPTFKDIRREDTLDVEVSASGYTKEMQADDELLHPLGPDDKNIETKEGSEFSFSDGEVAEKAEVYGSENESERNCLEESEGCYCRSSGDPEQIKEDSLSEESADARSFEMTEFNQALEEIKGQVVENNSVTEFSEEKNRTENYNRQDGQRVQGGVPAGSDEYEDECPHLIALSSLNREFRPFRDEENVGAMNQYRTRTLSITSSGSAVSCSTIPPELVKQKVKRQLTKQQKSAVRRRLQKGEANIFTKQRRENMQNIKSSLEAASFWGE

Key:
DDX21 (human) = molecular target: T1, DDX21 (human); test: co-immunoprecipitation of ectopically expressed HA-tagged RIOK2 with monoclonal anti-HA antibody beads, then LC-MS/MS; spectral counts normalised to the immunoprecipitated HA-RIOK2, fold change with respect to WT
WDR43 (human) = molecular target: T2, WDR43 (human); test: as above

| Binder | binding (DDX21 (human)) | binding (WDR43 (human)) |
| --- | --- | --- |
| B1 | binds | binds |
| B2 | binds |  |

Source: US20250381241A1
